For the experiment, the target named is T1, α-DG-K500-myc (myc-tagged α-dystroglycan subunit from the construct DG-K500-myc^GFP) (murine), Q62165.
T1 chain: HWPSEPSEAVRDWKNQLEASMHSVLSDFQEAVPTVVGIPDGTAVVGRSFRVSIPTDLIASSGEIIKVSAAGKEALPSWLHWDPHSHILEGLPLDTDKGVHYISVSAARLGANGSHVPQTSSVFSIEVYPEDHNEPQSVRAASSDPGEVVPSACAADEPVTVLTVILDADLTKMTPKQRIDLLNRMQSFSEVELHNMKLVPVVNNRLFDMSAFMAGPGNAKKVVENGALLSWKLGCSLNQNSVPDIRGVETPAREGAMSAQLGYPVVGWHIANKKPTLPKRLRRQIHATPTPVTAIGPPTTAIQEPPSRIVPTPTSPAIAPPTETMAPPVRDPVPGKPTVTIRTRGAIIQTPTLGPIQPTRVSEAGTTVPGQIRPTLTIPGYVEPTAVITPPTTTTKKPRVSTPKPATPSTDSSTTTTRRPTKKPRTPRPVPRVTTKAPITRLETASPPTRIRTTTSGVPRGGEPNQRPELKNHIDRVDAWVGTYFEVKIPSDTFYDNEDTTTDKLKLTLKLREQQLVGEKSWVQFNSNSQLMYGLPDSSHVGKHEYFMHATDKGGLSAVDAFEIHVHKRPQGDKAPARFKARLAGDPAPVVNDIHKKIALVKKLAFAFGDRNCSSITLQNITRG
The experiment in a line: co-IP; magnetic beads conjugated with an anti-myc antibody (µMACS Epitope Tag Protein Isolation Kit), 1 ml total protein extract (PBS, 1 % Triton X-100) of 293-Ebna cells transfected with DG-K500-myc^GFP, 30 min at room temperature; Western blot with anti β-DG antibody. To be noted: remark: other sources report otherwise. For orientation: In western blotting, separated proteins are transferred to a membrane and probed.

Results are given in words; binding and its absence hold for the method and conditions named. Binding seen in cells or lysates may run through a third protein. Some results given as binding are weak or reduced against the parent protein; the word gives no strength. Tags and fused reporters may be left off the sequences shown.

B1: β-DG-GFP (β-dystroglycan subunit fused to GFP, from the construct DG-K500-myc^GFP), Q62165 652-893 (protein)
chain: SIVVEWTNNTLPLEPCPKEQIIGLSRRIADENGKPRPAFSNALEPDFKALSIAVTGSGSCRHLQFIPVAPPSPGSSAAPATEVPDRDPEKSSEDDVYLHTVIPAVVVAAILLIAGIIAMICYRKKRKGKLTLEDQATFIKKGVPIIFADELDDSKPPPSSSMPLILQEEKAPLPPPEYPNQSMPETTPLNQDTVGEYTPLRDEDPNAPPYQPPPPFTAPMEGKGSRPKNMTPYRSPPPYVPP
modifications: here or on the partner: fully glycosylated (120 kDa band)
For B1, the binding result is recorded as “binds”.

These data come from article PMC3432625.
